Measurements published in article PMC8854551.
No constants are given. Whether binding was seen depends on the method and setting. Binding seen in cells or lysates may run through a third protein. Some binding calls cover weakened binding; strength is not graded here.

The chains behind the UniProt entries cited, without tags or fusion partners.
UniProt Q14573: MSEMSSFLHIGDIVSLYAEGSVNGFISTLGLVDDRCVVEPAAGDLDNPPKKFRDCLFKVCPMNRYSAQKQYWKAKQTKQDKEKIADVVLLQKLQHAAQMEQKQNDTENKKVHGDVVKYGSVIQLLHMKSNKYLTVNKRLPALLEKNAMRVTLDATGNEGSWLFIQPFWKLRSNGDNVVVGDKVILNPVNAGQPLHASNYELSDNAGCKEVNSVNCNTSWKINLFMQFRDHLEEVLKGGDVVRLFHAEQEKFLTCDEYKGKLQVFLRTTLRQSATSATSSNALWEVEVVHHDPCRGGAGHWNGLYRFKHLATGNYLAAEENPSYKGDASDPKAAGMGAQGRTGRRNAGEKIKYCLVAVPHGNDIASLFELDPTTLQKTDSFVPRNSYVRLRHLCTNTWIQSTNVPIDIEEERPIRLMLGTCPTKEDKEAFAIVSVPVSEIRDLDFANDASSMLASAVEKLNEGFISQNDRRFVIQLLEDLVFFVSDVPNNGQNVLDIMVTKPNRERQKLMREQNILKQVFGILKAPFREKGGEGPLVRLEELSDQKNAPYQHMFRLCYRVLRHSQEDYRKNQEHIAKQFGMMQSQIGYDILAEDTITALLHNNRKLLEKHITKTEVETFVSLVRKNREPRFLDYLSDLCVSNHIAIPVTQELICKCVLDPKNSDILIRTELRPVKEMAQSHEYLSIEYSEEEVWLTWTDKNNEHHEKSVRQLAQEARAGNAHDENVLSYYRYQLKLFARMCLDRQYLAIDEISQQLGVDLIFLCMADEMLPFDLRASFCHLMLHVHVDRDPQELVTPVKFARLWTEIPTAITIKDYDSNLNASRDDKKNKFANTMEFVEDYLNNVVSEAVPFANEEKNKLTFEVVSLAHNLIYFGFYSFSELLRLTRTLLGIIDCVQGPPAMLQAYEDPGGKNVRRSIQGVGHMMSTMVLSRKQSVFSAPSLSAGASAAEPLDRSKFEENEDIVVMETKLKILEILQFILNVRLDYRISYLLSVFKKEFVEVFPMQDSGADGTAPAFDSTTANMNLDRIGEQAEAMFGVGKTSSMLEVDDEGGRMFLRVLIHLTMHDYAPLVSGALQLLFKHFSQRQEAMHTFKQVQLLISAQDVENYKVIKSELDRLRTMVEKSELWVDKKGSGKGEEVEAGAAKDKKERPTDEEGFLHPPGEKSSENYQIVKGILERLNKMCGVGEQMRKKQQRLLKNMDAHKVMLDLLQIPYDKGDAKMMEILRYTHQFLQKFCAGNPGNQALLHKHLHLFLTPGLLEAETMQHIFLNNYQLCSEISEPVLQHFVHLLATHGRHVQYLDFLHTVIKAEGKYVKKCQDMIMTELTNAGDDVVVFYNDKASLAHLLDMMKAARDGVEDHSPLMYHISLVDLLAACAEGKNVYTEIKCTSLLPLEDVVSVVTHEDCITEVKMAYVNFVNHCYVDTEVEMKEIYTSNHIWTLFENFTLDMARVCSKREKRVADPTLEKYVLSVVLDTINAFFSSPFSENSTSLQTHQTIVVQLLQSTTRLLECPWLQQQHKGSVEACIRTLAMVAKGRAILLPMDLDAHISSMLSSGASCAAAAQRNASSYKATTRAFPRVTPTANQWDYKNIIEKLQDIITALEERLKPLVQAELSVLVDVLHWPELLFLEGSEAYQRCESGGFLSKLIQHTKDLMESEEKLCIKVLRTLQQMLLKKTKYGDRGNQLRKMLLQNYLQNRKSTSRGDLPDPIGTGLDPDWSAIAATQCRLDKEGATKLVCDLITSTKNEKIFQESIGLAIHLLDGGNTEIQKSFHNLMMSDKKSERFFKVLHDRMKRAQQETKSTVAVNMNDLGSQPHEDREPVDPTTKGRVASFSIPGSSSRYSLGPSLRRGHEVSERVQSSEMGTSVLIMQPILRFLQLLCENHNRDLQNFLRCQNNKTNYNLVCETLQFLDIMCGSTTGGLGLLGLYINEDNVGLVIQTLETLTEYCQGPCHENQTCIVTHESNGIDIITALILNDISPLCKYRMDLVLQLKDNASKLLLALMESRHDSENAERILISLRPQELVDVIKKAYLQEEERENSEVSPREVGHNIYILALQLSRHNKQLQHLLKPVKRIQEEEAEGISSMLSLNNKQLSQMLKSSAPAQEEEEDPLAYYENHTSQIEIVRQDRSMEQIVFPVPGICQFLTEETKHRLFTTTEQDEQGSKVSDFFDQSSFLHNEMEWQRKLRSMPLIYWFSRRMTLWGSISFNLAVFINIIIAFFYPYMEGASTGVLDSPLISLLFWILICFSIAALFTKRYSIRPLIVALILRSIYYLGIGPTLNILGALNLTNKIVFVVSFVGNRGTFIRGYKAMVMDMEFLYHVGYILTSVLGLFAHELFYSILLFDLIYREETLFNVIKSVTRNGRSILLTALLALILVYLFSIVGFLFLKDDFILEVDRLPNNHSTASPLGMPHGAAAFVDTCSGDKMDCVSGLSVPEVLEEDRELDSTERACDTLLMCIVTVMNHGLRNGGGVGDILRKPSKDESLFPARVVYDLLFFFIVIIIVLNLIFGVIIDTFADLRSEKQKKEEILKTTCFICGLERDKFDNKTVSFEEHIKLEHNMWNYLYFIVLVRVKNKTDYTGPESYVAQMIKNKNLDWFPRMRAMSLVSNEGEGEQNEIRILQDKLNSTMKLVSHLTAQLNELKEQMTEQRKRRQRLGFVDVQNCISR

Target: IP3 receptor type 3 (human (endogenous in fibroblasts)) (UniProt Q14573)
Test: co-IP; fibroblast lysates; protein A/G agarose beads coupled with rabbit anti-TRPC3 or rabbit anti-IP3R3 (5 ug/mg lysate), overnight at +4 C, five washes in IP buffer, western blot

B1: TRPC3 protein (protein, UniProt Q13507-3 1-848)
chain: MEGSPSLRRMTVMREKGRRQAVRGPAFMFNDRGTSLTAEEERFLDAAEYGNIPVVRKMLEESKTLNVNCVDYMGQNALQLAVGNEHLEVTELLLKKENLARIGDALLLAISKGYVRIVEAILNHPGFAASKRLTLSPCEQELQDDDFYAYDEDGTRFSPDITPIILAAHCQKYEVVHMLLMKGARIERPHDYFCKCGDCMEKQRHDSFSHSRSRINAYKGLASPAYLSLSSEDPVLTALELSNELAKLANIEKEFKNDYRKLSMQCKDFVVGVLDLCRDSEEVEAILNGDLESAEPLEVHRHKASLSRVKLAIKYEVKKFVAHPNCQQQLLTIWYENLSGLREQTIAIKCLVVLVVALGLPFLAIGYWIAPCSRLGKILRSPFMKFVAHAASFIIFLGLLVFNASDRFEGITTLPNITVTDYPKQIFRVKTTQFTWTEMLIMVWVLGMMWSECKELWLEGPREYILQLWNVLDFGMLSIFIAAFTARFLAFLQATKAQQYVDSYVQESDLSEVTLPPEIQYFTYARDKWLPSDPQIISEGLYAIAVVLSFSRIAYILPANESFGPLQISLGRTVKDIFKFMVLFIMVFFAFMIGMFILYSYYLGAKVNAAFTTVEESFKTLFWSIFGLSEVTSVVLKYDHKFIENIGYVLYGIYNVTMVVVLLNMLIAMINSSYQEIEDDSDVEWKFARSKLWLSYFDDGKTLPPPFSLVPSPKSFVYFIMRIVNFPKCRRRRLQKDIEMGMGNSKSRLNLFTQSNSRVFESHSFNSILNQPTRYQQIMKRLIKRYVLKAQVDKENDEVNEGELKEIKQDISSLRYELLEDKSQATEELAILIHKLSEKLNPSMLRCE
Which binding does the source give for B1 here?
The binding was “binds”.
